This note sets out measurements from PubChem BioAssay AID493014 (National Center for Advancing Translational Sciences (NCATS), 2011).

Molecules are shown by their SMILES. Some of the results follow. The main result of the screen is listed elsewhere. These columns were measured beside it and carry no call. Compounds called inactive in the main read-out are mostly missing here. Words in brackets tell the shape of the fitted curve; partial curves, single points and poor fits give uncertain potencies.

The test is described as follows: qHTS Assay to Find Inhibitors of Chronic Active B-Cell Receptor Signaling. The note with it: ABC-DLBCL IkBa-CBG/CBR reporter, luminescence ratio (green luciferase fused to IkBa over red control in TMD8 lymphoma cells), 4 h. The method, boiled down:
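Concentration-response series (up to 46 uM) were applied to TMD8 dual-reporter cells for 4 h at 37C with doxycycline. Green/red ratio, after filter-overlap correction, defined %Activity; red signal alone was normalised to basal cells and zero luminescence.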
A general note: qHTS replaces the single test concentration by a dilution series.

Where [1] appears, read: measured here: CBR red luminescence, cell number.
Setting [2] is: measured here: IkBa-CBG green luminescence.

As a reminder, the AC50 is the concentration giving half of the maximal activity seen.

Consider `Cc1oc2c(c1C(=O)c1ccccc1)C(=O)C(=O)c1ccccc1-2`, for which the half-maximal activity concentration (AC50) under setting [1] was 15.8 µM [falling, single point].
As to `CCCCOC(=O)c1ccc(NC(=S)NC(=O)c2c(Cl)cnn2CC)cc1`, the half-maximal activity concentration (AC50) under setting [1] was 3.98 µM [rising, single point].
Same read-out and setting: with `COc1ccc(-c2cc3nc(C)n(N)c(=O)c3s2)cc1` the figure was 3.98 µM [falling, partial curve]; with `O=C(c1ccc(Cl)cc1)C(Cn1cncn1)C(Sc1ccccc1)c1ccccc1` (stereo not drawn), 2.06 µM [falling, partial curve, poor fit].
With `CCCC(C(=O)Nc1ccc(S(=O)(=O)Nc2nccs2)cc1)c1ccccc1` (stereo not drawn), under setting [1], the AC50 is 6.51 µM [rising, single point].
Still for that read-out and setting: with `O=C(O)c1ccc(NC(=S)NC(=O)c2cccnc2)cc1` the figure was 5.01 µM [falling, full curve, poor fit]; with `Cc1cc(C(=O)OCC(=O)Nc2ccccc2Cl)c(C)o1`, 29.1 µM [falling, single point]; with `CCCC(=O)Nc1sc2c(c1C(=O)Nc1ccccn1)CCCC2`, 35.5 µM [falling, single point].
Same read-out and setting: next, `COc1cccc(COc2nc3c(c(=O)n(C)c(=O)n3C)n2C)c1`: 5.8 µM [falling, partial curve, poor fit].
On the same count and under the same terms, next, `COc1ccc(C)cc1NC(=O)Nc1ccccc1`: 29.1 µM [falling, single point]; `Cc1c(C(C)NC(=O)c2cc(COc3cccc4cnccc34)on2)cnn1C` (stereo not drawn): 2.82 µM [falling, partial curve, poor fit].
As for `CCOc1ccccc1NC(=O)Cn1nnc(C(=O)NCc2ccc3c(c2)OCO3)c1N`, under setting [1], the AC50 is 12.6 µM [rising, partial curve, poor fit].
Still for that read-out and setting: next, `CCc1nc2ccccc2c(C(=O)OCC(=O)NC2CC2)c1C`: 10.3 µM [rising, partial curve, poor fit]; `C[C@@]12CCC=C[C@H]1[C@H](c1ccc3ccccc3c1)N(Cc1ccccc1)C2=O`: 3.55 µM [falling, partial curve, poor fit].
On the same count and under the same terms, next, `CCNc1nc(NCC)nc(Oc2ccc(OCC)nn2)n1`: 35.5 µM [rising, single point]; `Cc1cccc(NC(=O)c2ccc([N+](=O)[O-])s2)n1`: 22.4 µM [falling, single point]; `CNC(=S)N(Cc1ccc2c(c1)OCO2)C1CC(=O)N(c2ccc(F)cc2)C1=O` (stereo not drawn): 29.1 µM [falling, single point].
In the case of `Oc1ccc(-c2nc(-c3ccc(O)c(O)c3)cs2)cc1`, the AC50 under setting [1] was 3.98 µM [falling, full curve, poor fit].
As for `O=C(Nc1ccc(Oc2ccccc2)nc1)C1CCCCN1Cc1ccco1` (stereo not drawn), the AC50 under setting [1] is 14.1 µM [rising, partial curve] and the AC50 under setting [2] is 20 µM [falling, single point].
Take `CC(=O)Oc1ccc(/C=N/NC(=S)Nc2ccccc2)cc1`: the AC50 under setting [1] is 25.9 µM [falling, single point] and the AC50 under setting [2] is 20.6 µM [falling, single point].
For the compound `NNc1nc(-c2ccccc2)cc(-c2ccccc2O)n1`, the AC50 under setting [1] was 0.112 µM [falling, full curve, poor fit].
In the case of `O=C(NCc1cccnc1)c1cccc(NS(=O)(=O)c2ccc(Br)cc2)c1`, under setting [1], the AC50 is 29.1 µM [rising, single point].
As for `O=C1C(=O)N(CNc2cccnc2)c2ccccc21`, the concentration at half-maximal activity (AC50) reads like this: under setting [1], 13 µM [rising, partial curve, poor fit]; under setting [2], 20.6 µM [falling, partial curve, poor fit].
For `Cn1c(=O)n(Cc2ccccc2)c(=O)c2c1nc1n2CCN1Cc1ccco1`, the AC50 under setting [1] was 35.5 µM [falling, single point].
The same measure, in the same setting: next, `Cc1cccc(NC(=O)c2nc(S(=O)(=O)Cc3ccccc3)ncc2Cl)c1`: 10 µM [falling, partial curve]; `COc1ccccc1CN1CCNC(=O)C1CC(=O)NCc1cn(C)nc1C` (stereo not drawn): 28.2 µM [rising, partial curve, poor fit].
On the same count and under the same terms, next, `CCC(C)c1ccc(O)c(/C=N/O)c1` (stereo not drawn): 20.6 µM [rising, partial curve, poor fit]; `CCCOc1ncnc2c1[nH]c1ccc(C)cc12`: 0.708 µM [rising, partial curve, poor fit]; `Cc1ccc(/C=C(\C#N)C(=O)NCc2ccco2)o1`: 12.6 µM [falling, single point].
On the same count and under the same terms, with `O=C(Nc1ccc(C2=NCCN2)cc1)c1ccc(C(=O)Nc2ccc(C3=NCCN3)cc2)c([N+](=O)[O-])c1` the figure was 35.5 µM [rising, single point]; with `Cc1ccc2nc(SCC(=O)c3ccccc3)nc(=O)n2c1`, 2.31 µM [falling, full curve].
Turning to `CC1(C)CN=c2s/c(=C\c3ccc(Cl)cc3)c(=O)n2C1`, the AC50 under setting [1] is 35.5 µM [falling, single point].
As to `CNC(=O)NC(=S)NC(=O)c1ccccc1Cl`, the AC50 under setting [1] was 11.2 µM [falling, partial curve].
Same read-out and setting: with `O=C(c1cccc(COc2cccc3ccccc23)c1)N1CCCC1` the figure was 20.6 µM [falling, partial curve]; with `CCCc1cc(=O)oc2cc(OCC(=O)NC3CCN(Cc4ccccc4)CC3)ccc12`, 3.16 µM [falling, partial curve, poor fit]; with `CCOc1ccccc1Cn1c(=O)oc2ccc(C)cc21`, 14.6 µM [rising, partial curve, poor fit].
Same read-out and setting: next, `Cn1c(SCC(=O)NNC(=O)Nc2ccc(Cl)cc2)nnc1-c1ccccc1`: 0.447 µM [rising, full curve, poor fit]; `Cc1ccc(NC(=O)c2cc(-c3cccs3)on2)cc1`: 10.3 µM [falling, partial curve, poor fit]; `O=C(Nc1ccccc1Br)N1CCC(CN2CCCC2)CC1`: 10 µM [rising, partial curve].
Still for that read-out and setting: with `OC1CCN(c2cc(-c3ccccc3)nc3cc(-c4ccc(F)cc4)nn23)CC1` the figure was 1 µM [falling, partial curve, poor fit].
With `CCN(CC)CCN1c2ccccc2Sc2ccccc21`, the AC50 under setting [1] is 11.2 µM [falling, single point].
In the case of `CN1C(=O)/C(=C/c2ccco2)SC1=Nc1cccc(C(=O)O)c1`, the concentration at half-maximal activity (AC50) under setting [1] is 11.2 µM [rising, single point].
As to `Cc1cc([N+](=O)[O-])ccc1Nc1nc2ccccc2n2cnnc12`, the AC50 under setting [2] is 17.8 µM [falling, partial curve, poor fit].
In the case of `CC(CC(=O)Nc1ccc(Cl)c(S(=O)(=O)N2CCOCC2)c1)c1ccccc1` (stereo not drawn), the AC50 under setting [1] is 0.58 µM [rising, full curve, poor fit].
The same measure, in the same setting: with `Cc1ccc(-c2cc(NC(=O)c3ccccc3[N+](=O)[O-])n[nH]2)cc1` the figure was 8.91 µM [falling, partial curve, poor fit]; with `CCOc1ccc(S(=O)(=O)Nc2ccc3c(c2)n(C)c(=O)n3C)cc1`, 15.8 µM [rising, single point].
The same measure, in the same setting: next, `C/C(=N\Nc1ccc(C)c(Cl)c1)c1ccncc1`: 10 µM [rising, partial curve, poor fit]; `c1ccc(COC2CCCN(Cc3nc(-c4cccs4)no3)C2)nc1` (stereo not drawn): 14.1 µM [rising, single point].
As for `O=C(COC(=O)CCc1ccccc1)NCc1ccc2c(c1)OCO2`, the AC50 under setting [1] is 4.11 µM [rising, full curve, poor fit].
`CCOc1ccc(NC(=O)CC2C(=O)NCCN2C(=O)Nc2ccccc2)cc1` (stereo not drawn): the AC50 under setting [1] is 17.8 µM [rising, partial curve, poor fit].
On the same count and under the same terms, with `CCOC(=O)c1cc2nc(Nc3ccc(OC)cc3)sc2s1` the figure was 8.91 µM [rising, partial curve]; with `Cc1ccc(NC(=S)Nc2ncccc2C)c(C)c1`, 17.8 µM [rising, single point]; with `Nc1ccccc1-c1nnc(SCc2ccccc2Cl)[nH]c1=O`, 13 µM [falling, partial curve].
The same measure, in the same setting: with `[O-][n+]1c2c(nn1-c1ccccc1)/C(=N/O)CCC2` the figure was 35.5 µM [rising, single point].
The same measure, in the same setting: with `CC(C)Oc1ccccc1OCCN(C)C` the figure was 3.66 µM [rising, single point]; with `CCOC(=O)C1=C(c2ccccc2)OC(N)=C(C#N)C1c1cccnc1` (stereo not drawn), 3.55 µM [falling, partial curve, poor fit].
As for `N#C/C(Cn1c[n+](NC(=O)Nc2ccccc2)cn1)=N/O`, the AC50 under setting [1] is 0.2 µM [rising, full curve].
Still for that read-out and setting: with `CC1CCN(CC(=O)N2CCc3ccccc32)CC1` the figure was 3.16 µM [rising, partial curve, poor fit]; with `Cc1cc(Br)cc(/C=N/NC(=O)c2ccc3c(c2)OCO3)c1O`, 4.47 µM [falling, full curve, poor fit]; with `O=C(O)C1CC(c2ccccc2F)=NO1` (stereo not drawn), 0.231 µM [rising, full curve, poor fit].
`O=C(CSc1nnc(COc2cccc3cccnc23)o1)c1ccc(F)cc1`: the concentration at half-maximal activity (AC50) under setting [1] is 12.6 µM [falling, single point].
On to `O=C(NC1=NCCS1)c1cc(-c2cccnc2)nc2ccccc12`, for which, under setting [1], the AC50 was 2.82 µM [falling, partial curve, poor fit].
The same measure, in the same setting: next, `Oc1ccc(C[C@H]2CNCCN2CCCCC2CCCCC2)cc1`: 5.8 µM [falling, partial curve, poor fit]; `CCOc1ccccc1N(CC(=O)Nc1ccc(OC)c(OC)c1)S(=O)(=O)c1ccccc1`: 35.5 µM [falling, partial curve, poor fit]; `COC(=O)c1cccc(C23CC4(C2)[C@H](CN(Cc2cccnc2)[C@@H]4c2ccccc2)C3c2ccc(Cl)nc2)c1` (stereo partly drawn): 3.16 µM [falling, partial curve, poor fit].
